Data taken from publication PMC6804044, “Design, Synthesis and Biological Evaluation of Pentacyclic Triterpene Derivatives: Optimization of Anti-ABL Kinase Activity” (Molecules, 2019).

How the values were obtained:
Assay type in all cases: cell-based
MT-2 = assay: MTT cell viability assay, MT-2; conditions: Homo sapiens, MT2, 24 h exposure
Procedure: (§1) A549 human lung carcinoma and HeLa human cervical carcinoma cell lines were cultured in Dulbecco’s Modified Eagle Medium (DMEM). MCF7 human breast cancer and leukemic (K562, HL-60, MT-2 and Jurkat) cells, and PBMC (Precision Bioservices, Frederic, MD, USA) were cultured in RPMI 1640. All media were purchased from FUJIFILM Wako (Osaka, Japan) and supplemented with 10% fetal bovine serum (FBS) (Sigma-Aldrich, St. Louis, MO, USA) and 89 μg/mL streptomycin (Meiji Seika Pharma, Tokyo, Japan) at 37 °C in a humid atmosphere and 5% CO2. In experiments, all cancer cell lines and PBMC were cultured in 24-well and 96-well plates (Iwaki brand Asahi Glass, Chiba, Japan) at 2 × 10^4 cells/mL and 1 × 10^6 cells/mL concentrations, respectively for 24 h. […] The concentration of DMSO in the final culture medium was 1%, which had no effect on the cell viability.
(§2) The cells were exposed to various concentrations (1–100 μM) of the compounds for 24 h at 37 °C. The cells were then stained with MTT solution and incubated for additional 4 h. At the end of this period, supernatants were removed and 100 μL DMSO was added to each well to solubilize the formazan crystals. The absorbance of the solution was determined on the Infinitive M1000 (Tecan, Mannedorf, Switzerland) plate reader at a wavelength of 550 nm with background subtraction at 630 nm.

HL-60 = assay: MTT cell viability assay, HL-60; conditions: Homo sapiens, 24 h exposure
Procedure: as §1, §2

MCF7 human breast cancer = assay: MTT cell viability assay, MCF7; conditions: 24 h exposure
Procedure: as §1, §2

Jurkat = assay: MTT cell viability assay, Jurkat; conditions: Homo sapiens, 24 h exposure
Procedure: as §1, §2

[1] = tested on: A549 human lung carcinoma; assay: MTT cell viability assay, A549; conditions: 24 h exposure
Procedure: as §1, §2

IC50 (HL-60): 11.8 ± 1.08 µM
IC50 (MCF7 human breast cancer): 90.6 ± 5.81 µM
IC50 (Jurkat): 9.69 ± 0.63 µM
IC50 [1]: 95.1 ± 8.33 µM
SMILES: Cc1ccc(NC(=O)c2ccc(CN3CCN(C)CC3)cc2)cc1Nc1nccc(-c2cccnc2)n1 [Imatinib, reference compound]
IC50 (MT-2): 13 ± 1.33 µM
